System: papain
Experiment: Protease treatment: digestion with papain, followed by HPLC
Format: biochemical
Conditions: activated papain, enzyme/substrate ratio 1:50, phosphate buffer pH 6.5; main product Z-Ala-OH / Z-Gly-OH

SMILES	hydrolysis by papain
CC(NC(=O)OCc1ccccc1)C(=O)NC(CO)(CO)CO (centres unmarked) [Z-Ala-TRIS]	very slowly
O=C(CNC(=O)OCc1ccccc1)NC(CO)(CO)CO [Z-Gly-TRIS]	very slowly

Reference: EP0506748B1, “AMINO ACIDS, PEPTIDES OR DERIVATIVES THEREOF COUPLED TO FATS” (COMMONWEALTH SCIENTIFIC AND INDUSTRIAL RESEARCH ORGANISATION, priority 1989, dated 1991)
